According to paper PMC1914067:
These are yes or no findings as the source states them, for the method shown. For some assays here: Tags and fused reporters may be left off the sequences shown.

Chains of the proteins cited; added tags and fusions are not shown. Residues count along the entry.
UniProt P05556: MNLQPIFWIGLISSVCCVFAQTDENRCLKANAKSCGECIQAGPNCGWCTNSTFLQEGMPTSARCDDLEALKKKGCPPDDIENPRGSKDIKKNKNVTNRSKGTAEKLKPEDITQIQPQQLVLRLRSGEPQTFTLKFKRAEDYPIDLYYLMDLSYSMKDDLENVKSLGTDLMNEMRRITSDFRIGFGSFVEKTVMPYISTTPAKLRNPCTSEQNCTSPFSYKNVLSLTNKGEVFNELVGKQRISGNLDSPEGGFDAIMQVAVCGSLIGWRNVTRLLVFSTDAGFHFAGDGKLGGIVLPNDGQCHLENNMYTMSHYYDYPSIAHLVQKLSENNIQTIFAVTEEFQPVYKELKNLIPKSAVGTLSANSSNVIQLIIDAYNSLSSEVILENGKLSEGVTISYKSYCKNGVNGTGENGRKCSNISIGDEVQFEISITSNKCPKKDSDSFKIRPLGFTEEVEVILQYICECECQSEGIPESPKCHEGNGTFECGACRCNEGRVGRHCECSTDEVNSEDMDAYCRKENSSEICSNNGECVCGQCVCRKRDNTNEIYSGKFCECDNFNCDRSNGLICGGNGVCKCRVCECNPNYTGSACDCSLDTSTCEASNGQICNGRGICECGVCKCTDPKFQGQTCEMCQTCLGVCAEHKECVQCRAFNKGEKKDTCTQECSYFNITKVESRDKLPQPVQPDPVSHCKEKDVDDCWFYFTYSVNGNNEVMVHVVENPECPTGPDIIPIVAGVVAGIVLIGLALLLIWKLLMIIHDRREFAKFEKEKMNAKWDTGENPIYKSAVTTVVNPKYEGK
UniProt P31697, residues 37-241: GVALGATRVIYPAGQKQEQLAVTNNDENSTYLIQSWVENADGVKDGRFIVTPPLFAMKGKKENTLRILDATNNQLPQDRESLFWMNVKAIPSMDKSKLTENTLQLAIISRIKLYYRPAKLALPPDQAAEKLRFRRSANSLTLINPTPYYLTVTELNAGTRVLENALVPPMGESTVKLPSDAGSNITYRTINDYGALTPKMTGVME

Tests used:
[1] = biological target: T1, human α3 integrin (untagged) (human) (UniProt P26006); test: far-Western, overlay or dot blot; β1 or α3 integrin immunoprecipitated from transfected 5637 cells, left untreated or treated with EndoHf or PNGase F, resolved by SDS-PAGE and transferred to PVDF; overlaid with FimC_(6XHisFLAG)–FimH, FimC_(6XHisFLAG)–FimH plus 2.5% D-mannose, or FimC_(6XHisFLAG) alone; detected with anti-FLAG antibody; both purified
T1 sequence (chain, N-linked oligosaccharides (untreated)): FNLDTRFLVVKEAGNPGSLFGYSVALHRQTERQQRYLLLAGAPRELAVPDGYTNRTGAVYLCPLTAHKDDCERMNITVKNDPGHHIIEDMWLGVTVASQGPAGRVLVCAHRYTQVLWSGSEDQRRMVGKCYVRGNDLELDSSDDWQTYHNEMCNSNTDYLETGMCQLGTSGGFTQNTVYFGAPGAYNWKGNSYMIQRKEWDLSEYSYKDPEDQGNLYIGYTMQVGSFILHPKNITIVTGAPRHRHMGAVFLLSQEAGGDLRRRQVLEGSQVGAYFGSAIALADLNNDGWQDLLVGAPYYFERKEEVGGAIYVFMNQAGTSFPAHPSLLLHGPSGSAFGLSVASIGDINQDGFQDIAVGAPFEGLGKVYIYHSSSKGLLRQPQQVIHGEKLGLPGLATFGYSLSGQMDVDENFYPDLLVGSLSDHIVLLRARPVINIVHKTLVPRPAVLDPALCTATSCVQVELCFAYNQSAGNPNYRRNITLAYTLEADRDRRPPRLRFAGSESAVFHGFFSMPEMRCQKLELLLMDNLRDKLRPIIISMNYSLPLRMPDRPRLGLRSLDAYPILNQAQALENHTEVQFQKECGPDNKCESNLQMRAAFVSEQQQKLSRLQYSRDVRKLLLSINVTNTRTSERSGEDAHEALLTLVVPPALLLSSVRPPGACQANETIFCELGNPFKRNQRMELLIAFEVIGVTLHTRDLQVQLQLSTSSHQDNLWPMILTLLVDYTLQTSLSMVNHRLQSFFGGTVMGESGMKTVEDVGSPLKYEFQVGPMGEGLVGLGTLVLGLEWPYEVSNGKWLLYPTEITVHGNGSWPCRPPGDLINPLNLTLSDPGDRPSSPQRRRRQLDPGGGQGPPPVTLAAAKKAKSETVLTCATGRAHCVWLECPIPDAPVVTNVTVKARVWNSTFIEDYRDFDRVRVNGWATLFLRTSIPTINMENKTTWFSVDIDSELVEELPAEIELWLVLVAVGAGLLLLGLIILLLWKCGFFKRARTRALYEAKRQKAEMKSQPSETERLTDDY

[2] = biological target: V5His-tagged human β1 integrin (β1A isoform) (human) (UniProt P05556); test: as above

**Q.** “FimC_(6XHisFLAG) (from UniProt P31697 37-241)” was tested. Which binding [1] did it give?
**A.** no binding

**Q.** And the binding [2]?
**A.** no binding
